{"source": "PubChem BioAssay AID1347423", "about": "(Functional Genomics Laboratory (NCATS/FGL), 2020)", "note": "Hit rate of the full screen: of about 52,000 sequences, about 210 (0.4%) were called active.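 How the source made its calls: active means gene whose silencing raises cell survival under the drug, median off-target-corrected z-score across its silencing RNAs 2 or more; inactive means the rest.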 This is one part of the list."}
{"assay": "Resistance to Poly (ADP-Ribose) Polymerase inhibitor: Gene Identification via Genome-wide siRNA Screen", "conditions": "mouse BRCA2 R2336H ES cells, olaparib, CellTiter-Glo viability; hits give high values", "procedure,_shortened": "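Genome-wide siRNA screen (3 siRNAs/gene, 20 nM) in mouse ES cells carrying hypomorphic BRCA2 R2336H; olaparib 500 nM added 48 h post-transfection, CellTiter-Glo viability 72 h later. Normalized to plate-median negative control; MAD z-scores, gene median, seed-adjusted.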"}
{"sequence": "GGAGGCCUUGUACUUACACTT against Rspondin", "z-score": "inactive: -0.0618"}
{"sequence": "CGAAAAGGUGUGGCCAUCATT against Ddx48", "z-score": "inactive: -1.27"}
{"sequence": "GGAGUAUGUCCAUUGUCACTT against V1re8", "z-score": "inactive: 1.38"}
{"sequence": "CCUAUAACCGGACUUAUGATT against Ctsf", "z-score": "inactive: -0.916"}
{"sequence": "GCCCUUAAUUGAACAAAUATT against Za20d1", "z-score": "inactive: -0.194"}
{"sequence": "GGGCCUUCCAAAAAAGAAGTT against Zcchc6", "z-score": "inactive: 0.343"}
{"sequence": "CGGCAUCAUUCAUUCAUUATT against 4933428G09Rik", "z-score": "inactive: -0.66"}
{"sequence": "GUACCUACUUCACCACCAUTT against C730025P13Rik", "z-score": "inactive: -1.99"}
{"sequence": "GGCUGAAGAUUUACUUCUATT against E130103I17Rik", "z-score": "inactive: 1.1"}
{"sequence": "GGUGACCUACAAGAUUUGUTT against AI481750", "z-score": "inactive: 0.0847"}
{"sequence": "CGGUACAAGCUUGUGGAGCTT against Mmd2", "z-score": "inactive: 0.454"}
{"sequence": "GCCAAGAUCCAGGUGUGGUTT against Og9x", "z-score": "inactive: 0.209"}
{"sequence": "CCAGUUAAGCCAAACUAUGTT against Wdr5", "z-score": "inactive: -2.64"}
{"sequence": "GCCACCCAGUUAUUUGAAATT against 3110001D03Rik", "z-score": "inactive: 0.831"}
{"sequence": "GGCAUUCUCCCUUUGGUGATT against Armc5", "z-score": "inactive: 1.31"}
{"sequence": "GGAGUUUCUUCAGUUCCUUTT against Dld", "z-score": "inactive: -1.69"}
{"sequence": "GGGCAACAAGACUUUGAAATT against BC014795", "z-score": "inactive: -0.916"}
{"sequence": "GGAAUUAAUGGUGAAGUAUTT against Pcdhb19", "z-score": "inactive: -1.08"}
{"sequence": "GGAAGUCUAAACAAAGCAATT against Ttc14", "z-score": "inactive: 0.511"}
{"sequence": "CCAAUUCUACAAUCCGACATT against Tmc5", "z-score": "inactive: 0.985"}
{"sequence": "GGAGGAUGCUGACAAGGAATT against Gnat2", "z-score": "inactive: -2.18"}
{"sequence": "GGAGAUUGCCCUCUAUGAGTT against Prom1", "z-score": "inactive: 0.403"}
{"sequence": "GGCUUCUUGAGGAGAAAGATT against 2310001H13Rik", "z-score": "inactive: -0.0209"}
{"sequence": "GGCAGUAGUUAGCAAAUAUTT against 2810433K01Rik", "z-score": "inactive: -3.42"}
{"sequence": "CUAGCUUGUGCCGUUCUGATT against 2310016M24Rik", "z-score": "inactive: -0.924"}
{"sequence": "GAAUAUUCAAGCAUUACUCTT against Olfr1302", "z-score": "inactive: 0.206"}
{"sequence": "GGCGAAAAGACCAGUUAUGTT against Man2c1", "z-score": "inactive: 0.418"}
{"sequence": "CCCAGCAGGCCAUAUUAGUTT against Cks1", "z-score": "inactive: -0.133"}
{"sequence": "GGCAGUAAGAACUACUAAATT against C130057E09Rik", "z-score": "inactive: -0.865"}
{"sequence": "GCUAUGAAGUUCAAAGGUCTT against Arf4", "z-score": "inactive: -0.717"}
{"sequence": "CGGGAUAGCUGUCCUGUUATT against Mrps14", "z-score": "inactive: -2.31"}
{"sequence": "GCAGCAUGAAUCACACCUUTT against 6530401N04Rik", "z-score": "inactive: 2.02"}
{"sequence": "CGAGAAGAACUGUGUAAAGTT against Vldlr", "z-score": "inactive: -0.0206"}
{"sequence": "CCGACAUUCGAGUUUUGCGTT against Rnu3ip2", "z-score": "inactive: 0.506"}
{"sequence": "CGAGAUACUCAAUAUGUGGTT against Sumf2", "z-score": "inactive: 0.21"}
{"sequence": "CCAGAUUCGAAUAUCUAAGTT against Mrps30", "z-score": "inactive: 0.239"}
{"sequence": "CGCAGAAGCUUAGCCAUCATT against Cog6", "z-score": "inactive: -0.39"}
{"sequence": "GGUACUGUUUAUCAUUCAUTT against BC016235", "z-score": "inactive: 0.42"}
{"sequence": "GCGAAGGCGAUUUCUACUATT against Gm433", "z-score": "inactive: -0.591"}
{"sequence": "GGACCUUAAAUUUAGAUGGTT against Cept1", "z-score": "inactive: -0.286"}
{"sequence": "GGCAUCAAGUCCAUUUUUGTT against Slc12a4", "z-score": "inactive: -0.293"}
{"sequence": "GGAUUGUGUUAGAACUUACTT against Blk", "z-score": "inactive: 0.273"}
{"sequence": "CGAACACUUUAACAUUUUGTT against BC053393", "z-score": "inactive: 0.542"}
{"sequence": "CCUACGGACUCAGGAAAUATT against Tle6", "z-score": "inactive: 0.254"}
{"sequence": "CCCUAAUAGUGAAUACAUGTT against Icos", "z-score": "inactive: 0.427"}
{"sequence": "GGAAUUUUUUCAUACCACUTT against Waspip", "z-score": "inactive: 1.14"}
{"sequence": "GCCUUACACUGUAGUCAGGTT against C130023O10Rik", "z-score": "inactive: 0.508"}
{"sequence": "GGAGAUGAGGAAGCUCUUCTT against Usp4", "z-score": "inactive: -0.357"}
{"sequence": "CGUUACCCUGGAUUCCGAUTT against 4921511H03Rik", "z-score": "inactive: 0.537"}
{"sequence": "CCUGCCUAUUGUUUCAGAATT against Ifna11", "z-score": "inactive: 0.134"}
{"sequence": "GCCAGCAUAAAUAUACUUUTT against 9030421J09Rik", "z-score": "inactive: -0.26"}
{"sequence": "GCUCAAGUGGGCCUUUAGCTT against Hpcal1", "z-score": "inactive: 0.182"}
{"sequence": "GGAGUAUAUCUCGUUUAUATT against Ube2e2", "z-score": "inactive: -0.466"}
{"sequence": "GGACAAGGAAUUCUAACAGTT against Gbif", "z-score": "inactive: -0.424"}
{"sequence": "GGAAUGGAAAUUUGAUACUTT against Ddx48", "z-score": "inactive: -1.56"}
{"sequence": "GCAAAGUCAAGAGAAGUAUTT against A430033K04", "z-score": "inactive: -1.98"}
{"sequence": "CCUUAUCAGCCAGGGUUGGTT against Asb9", "z-score": "inactive: -0.058"}
{"sequence": "GCCAGAUCUUAUCAUUAUUTT against 2700075B01Rik", "z-score": "inactive: -0.0865"}
{"sequence": "GGACAAGUUUUCCUUUUCUTT against Phf2", "z-score": "inactive: 0.468"}
{"sequence": "GGAAAUGGUGAAUAUGCGUTT against Rnf146", "z-score": "inactive: 0.171"}
{"sequence": "GGGAAAGUUUCUGCAUUCUTT against Sprrl7", "z-score": "inactive: -0.9"}
{"sequence": "GGAUGUCAAGCUUUCCCAATT against 3632451O06Rik", "z-score": "inactive: 0.731"}
{"sequence": "CCUUAUUGGGUCAUAAGCATT against 2210403B10Rik", "z-score": "inactive: 0.798"}
{"sequence": "GGCUCAGGUGCCAAUUGCATT against Mfng", "z-score": "inactive: -0.918"}
{"sequence": "GGAUUUUUGAUCUACCUAUTT against Slc16a7", "z-score": "inactive: 1.65"}
{"sequence": "GGAAGACGGCAAUCAACCATT against Cyp2c37", "z-score": "inactive: 1.09"}
